These results are taken from PMC5853894.

Experiment [1] has as its target T1, small rubber particle protein (SRPP) fused to GFP (Hevea brasiliensis) (UniProt O82803).
T1 sequence: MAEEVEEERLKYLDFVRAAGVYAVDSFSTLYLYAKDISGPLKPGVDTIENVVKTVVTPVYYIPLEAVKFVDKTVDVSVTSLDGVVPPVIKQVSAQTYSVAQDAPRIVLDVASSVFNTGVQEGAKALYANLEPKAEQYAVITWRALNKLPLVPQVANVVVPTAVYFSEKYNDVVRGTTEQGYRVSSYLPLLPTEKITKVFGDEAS
The experiment in a line: co-IP; N. benthamiana leaves co-infiltrated with pairs of constructs, homogenised after 3 d in 150 mM Tris-HCl pH 7.5, 150 mM NaCl, 1.5% Triton X-100; GFPTrap or RFPTrap beads, 2 h at 4 °C; immunoblot with anti-GFP or anti-RFP; done in both directions.

For experiment [2], the target named is T2, rubber elongation factor (REF) fused to mCherry (Hevea brasiliensis) (UniProt P15252).
T2 sequence: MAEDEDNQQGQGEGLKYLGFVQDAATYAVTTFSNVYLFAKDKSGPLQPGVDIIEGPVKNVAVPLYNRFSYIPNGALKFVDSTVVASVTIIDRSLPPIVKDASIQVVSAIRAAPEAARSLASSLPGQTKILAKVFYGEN
Described as above.

Results are given in words; binding and its absence hold for the method and conditions named. In cells and extracts the contact can be indirect. Some entries that bind do so weakly or less than the wild type. Sequences can lack the tags named with a protein.

B1: cis-prenyltransferase CPT6 fused to mCherry (enzyme, UniProt Q8W3U4 1-284)
chain: MELYNGERPSVFRLLGKYMRKGLYSILTQGPIPTHIAFILDGNGRFAKKHKLPEGGGHKAGFLALLNVLTYCYELGVKYATIYAFSIDNFRRKPHEVQYVMNLMLEKIEGMIMEESIINAYDICVRFVGNLKLLDEPLKTAADKIMRATAKNSKFVLLLAVCYTSTDEIVHAVEESSKDKLKSDEICNDGNGDCVIKIEEMEPYSEIKLVELERNTYINPYPDVLIRTSGETRLSNYLLWQTTNCILYSPHALWPEIGLRHVVWAVINCQRHYSYLEKHKEYLK
Regarding B1, the binding result in experiment [1] is given as “no binding”.

B2: cis-prenyltransferase CPT6, fluorescent protein fusion tested against REF (enzyme, UniProt Q8W3U4 1-284)
chain: B1 chain
In the case of B2, in experiment [2], the binding entry was “no binding”.

B3: rubber elongation factor (REF) fused to mCherry (protein, UniProt P15252 1-138)
chain: T2 sequence
In the case of B3, the binding result in experiment [1] is reported as “binds”.
